Measured values reported in patent publication US20120321619A1.
These are yes or no findings as the source states them, for the method shown. Some entries that bind do so weakly or less than the wild type. For some assays here: Tags and fused reporters may be left off the sequences shown.

The chains behind the UniProt entries cited, without tags or fusion partners. Residues count along the entry.
UniProt Q91YK8, residues 33-343: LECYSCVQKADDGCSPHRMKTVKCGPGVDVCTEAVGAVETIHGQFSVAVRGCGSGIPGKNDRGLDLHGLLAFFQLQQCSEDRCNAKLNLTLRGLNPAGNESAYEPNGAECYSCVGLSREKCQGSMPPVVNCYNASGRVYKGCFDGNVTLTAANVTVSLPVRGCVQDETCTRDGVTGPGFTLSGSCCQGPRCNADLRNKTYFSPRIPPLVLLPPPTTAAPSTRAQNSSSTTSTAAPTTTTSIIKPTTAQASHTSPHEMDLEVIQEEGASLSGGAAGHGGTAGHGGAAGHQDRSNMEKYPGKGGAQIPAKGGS

What was measured:
[1] = target: T1, hC4.4a domain S1-Fc-his6 (human) (UniProt O95274); assay: western blot, non-reduced samples
T1 sequence (chain (part 1 of 2)): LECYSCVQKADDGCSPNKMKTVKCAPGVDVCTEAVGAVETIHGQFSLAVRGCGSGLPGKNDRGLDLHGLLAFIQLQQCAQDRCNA
T1 sequence (chain (part 2 of 2)): HHHHHH

[2] = target: recombinant soluble murine C4.4a (mouse) (UniProt Q91YK8); assay: western blot, non-reduced samples

B1: M31-B01 (antibody, human IgG1, V domains shown)
VH: EVQLLESGGGLVQPGGSLRLSCAASGFTFSNAWMSWVRQAPGKGLEWVSYISSSGSTIYYADSVKGRFTISRDNSKNTLYLQMNSLRAEDTAVYYCAREGLWAFDYWGQGTLVTVTS
VL: QSVLTQPPSASGTPGQRVTISCTGSSSNIGAGYVVHWYQQLPGTAPKLLIYDNNKRPSGVPDRFSGSKSGTSASLAISGLRSEDEADYYCAAWDDRLNGPVFGGGTKLTVLG
- binding [1]: binds
- binding [2]: binds
